Source: PubChem BioAssay AID330 (DTP/NCI, 2004)
The list shows only some results of the screen, not a fair sample: it gathers tests that were run many times, whatever their T/C, doses with no T/C, and many T/C values between a quarter and a half above the control. Further doses and runs are listed elsewhere. T/C is the treated group as % of the vehicle group. Some entries give survivors of the animals treated and no T/C: the source holds a T/C of zero for them, seemingly a mark for toxic or unscored doses. Some doses without a T/C left all or most animals alive at the check, yet need not have been tolerated: the source hardly ever lists a survival T/C far under the control, and the zero likely stands for such cases as well. Counts of survivors are from the toxicity check (mostly the fifth day) where no day follows; animals may have died later. Schedules are NCI's codes, taken here to give the interval after Q, in days (D) or hours (H), and the number of doses after X. Some entries were tested several times; the results are listed from low to high. Where survival is the endpoint, this PubChem deposit counts one and a half times the control or more as active, and values a quarter to a half above the control carry no call in these data; other NCI protocols may use other cut-offs.

Test system: P388 leukemia ip, CD2F1 mice, survival T/C
Experiment: NCI In Vivo Anticancer Drug Screen. Data for tumor model P388 Leukemia (intraperitoneal) in CD2F1 (CDF1) mice
Conditions: T/C endpoint: median survival time, higher T/C = longer survival
[1] = dose: 100.0 mg/kg/injection, schedule: Q01DX005 (ip), vehicle: Klucel (hydroxypropylcellulose) (HPC)
[2] = dose: 200.0 mg/kg/injection, schedule: Q01DX005 (ip), vehicle: Klucel (hydroxypropylcellulose) (HPC)
[3] = dose: 400.0 mg/kg/injection, schedule: Q04DX003 (ip), vehicle: saline
[4] = dose: 6.25 mg/kg/injection, schedule: Q01DX005 (ip), vehicle: saline
[5] = dose: 12.5 mg/kg/injection, schedule: Q01DX005 (ip), vehicle: saline
[6] = dose: 25.0 mg/kg/injection, schedule: Q01DX005 (ip), vehicle: saline
[7] = dose: 50.0 mg/kg/injection, schedule: Q01DX005 (ip), vehicle: saline
[8] = dose: 100.0 mg/kg/injection, schedule: Q01DX005 (ip), vehicle: saline
[9] = dose: 200.0 mg/kg/injection, schedule: Q01DX005 (ip), vehicle: saline
[10] = dose: 50.0 mg/kg/injection, schedule: Q01DX009 (ip), vehicle: saline with Tween-80
[11] = dose: 100.0 mg/kg/injection, schedule: Q01DX009 (ip), vehicle: saline with Tween-80
[12] = dose: 200.0 mg/kg/injection, schedule: Q01DX009 (ip), vehicle: saline with Tween-80
[13] = dose: 200.0 mg/kg/injection, schedule: Q01DX009 (ip), vehicle: Klucel (hydroxypropylcellulose) (HPC)
[14] = dose: 240.0 mg/kg/injection, schedule: Q01DX005 (ip), vehicle: Klucel (hydroxypropylcellulose) (HPC)
[15] = dose: 60.0 mg/kg/injection, schedule: Q01DX005 (ip), vehicle: saline
[16] = dose: 120.0 mg/kg/injection, schedule: Q01DX005 (ip), vehicle: saline
[17] = dose: 240.0 mg/kg/injection, schedule: Q01DX005 (ip), vehicle: saline

C=CCc1cc(Nc2c3ccc(Cl)cc3nc3ccc(OC)cc23)cc(CN(CC)CC)c1O
survivor count (dose: 12.5 mg/kg/injection, schedule: Q01DX005 (ip), vehicle: Klucel (hydroxypropylcellulose) (HPC)): 1 of 6 and 4 of 6
survivor count (dose: 25.0 mg/kg/injection, schedule: Q01DX005 (ip), vehicle: Klucel (hydroxypropylcellulose) (HPC)): 0 of 5 and 0 of 6
survivor count (dose: 50.0 mg/kg/injection, schedule: Q01DX005 (ip), vehicle: Klucel (hydroxypropylcellulose) (HPC)): 0 of 5
survivor count [1]: 0 of 5
survivor count [2]: 0 of 5

O=S1(=O)CC2=C(C1)C1C=CC2C2C=CC12 (stereo not drawn)
survivor count (dose: 200.0 mg/kg/injection, schedule: Q04DX003 (ip), vehicle: saline): 5 of 6
survivor count [3]: 3 of 6

Cc1ccc(/C=C/C(=O)C(CN(C)C)CN(C)C)cc1
survivor count [4]: 2 of 6 and 3 of 6
survivor count [5]: 0 of 6
survivor count [6]: 0 of 6
survivor count [7]: 0 of 6
survivor count [8]: 0 of 6
survivor count [9]: 0 of 6

Cc1cncn2c(C)nnc12
survivor count [3]: 0 of 6

SCc1ccccc1.[Cu+2]
survivor count [10]: 3 of 6
survivor count [11]: 0 of 6
survivor count [12]: 0 of 6

CCN(CC)CCOC(=O)C(OCCOc1ccccc1)(c1ccccc1)c1ccccc1
survivor count [2]: 0 of 6

Cc1ccc(O)c(C(c2cc(C)ccc2O)c2cc(C)ccc2O)c1
survivor count [11]: 6 of 6
survivor count [12]: 0 of 6

COC(=O)Nc1cn2ccc(Sc3ccccc3)cc2n1
T/C [13]: 127 and 132 % of control
T/C (dose: 400.0 mg/kg/injection, schedule: Q01DX009 (ip), vehicle: Klucel (hydroxypropylcellulose) (HPC)): 133 % of control

N#Cc1ccc(NC(=O)Nc2ccc([N+](=O)[O-])cc2Cl)cc1
survivor count (dose: 60.0 mg/kg/injection, schedule: Q01DX005 (ip), vehicle: saline with Tween-80): 6 of 6
survivor count (dose: 120.0 mg/kg/injection, schedule: Q01DX005 (ip), vehicle: saline with Tween-80): 6 of 6

O=c1[nH]c(=O)n(Cl)c(=O)n1Cl
survivor count [13]: 0 of 6

CCCCCCNP1(NCCCCCC)=NP(NCCCCCC)(NCCCCCC)=NP(NCCCCCC)(NCCCCCC)=NP(NCCCCCC)(NCCCCCC)=N1
survivor count (dose: 150.0 mg/kg/injection, schedule: Q01DX005 (ip), vehicle: Klucel (hydroxypropylcellulose) (HPC)): 4 of 4

CNC(=O)Oc1ccc2c(c1)[C@]1(C)CCN(C)[C@@H]1N2C
survivor count (dose: 0.78 mg/kg/injection, schedule: Q01DX005 (ip), vehicle: saline with Tween-80): 0 of 6
survivor count (dose: 1.56 mg/kg/injection, schedule: Q01DX005 (ip), vehicle: saline with Tween-80): 0 of 6
survivor count (dose: 3.13 mg/kg/injection, schedule: Q01DX005 (ip), vehicle: saline with Tween-80): 0 of 6
survivor count (dose: 6.25 mg/kg/injection, schedule: Q01DX005 (ip), vehicle: saline with Tween-80): 0 of 6
survivor count (dose: 12.5 mg/kg/injection, schedule: Q01DX005 (ip), vehicle: saline with Tween-80): 0 of 6
survivor count (dose: 25.0 mg/kg/injection, schedule: Q01DX005 (ip), vehicle: saline with Tween-80): 0 of 6
survivor count (dose: 50.0 mg/kg/injection, schedule: Q01DX005 (ip), vehicle: saline with Tween-80): 0 of 5
survivor count (dose: 100.0 mg/kg/injection, schedule: Q01DX005 (ip), vehicle: saline with Tween-80): 0 of 5
survivor count (dose: 200.0 mg/kg/injection, schedule: Q01DX005 (ip), vehicle: saline with Tween-80): 0 of 5

CCCCCCCCCCCCOCCCOP(=O)([O-])OCC[N+](C)(C)C
survivor count [9]: 0 of 6

CC(C)NCCCNC(=S)C(=S)NCCCNC(C)C
survivor count [2]: 0 of 6

CCN(CC)CCNC(=O)c1noc2cc([N+](=O)[O-])ccc12
survivor count [8]: 3 of 5
survivor count [9]: 0 of 5

Cc1ccccc1/C=N\N1C(=O)C(C)SC1c1ccccc1C (stereo not drawn)
survivor count [12]: 6 of 6

O=C1SC/C(=N\N=c2/scc(-c3ccccc3)n2-c2ccc(Br)cc2)N1Cc1ccccc1
survivor count (dose: 400.0 mg/kg/injection, schedule: Q04DX002 (ip), vehicle: Klucel (hydroxypropylcellulose) (HPC)): 6 of 6

C/C(=N\N)c1nc2ccccc2[nH]1
survivor count (dose: 120.0 mg/kg/injection, schedule: Q01DX005 (ip), vehicle: Klucel (hydroxypropylcellulose) (HPC)): 0 of 6
survivor count [14]: 0 of 6

O=S(O)O
survivor count (dose: 800.0 mg/kg/injection, schedule: Q01DX005 (ip), vehicle: saline): 0 of 6

O=[As]O
T/C (dose: 4.0 mg/kg/injection, schedule: Q01DX010 (ip), vehicle: saline with Tween-80): 127 % of control
T/C (dose: 8.0 mg/kg/injection, schedule: Q01DX010 (ip), vehicle: saline with Tween-80): 136 % of control

Clc1cc[c]([Sn]([Cl])([O][Sn]([Cl])([c]2ccc(Cl)cc2)[c]2ccc(Cl)cc2)[c]2ccc(Cl)cc2)cc1
T/C [4]: 145 % of control
T/C [5]: 146 % of control
T/C [6]: 129 % of control
survivor count [7]: 4 of 6
survivor count [8]: 3 of 6
survivor count [9]: 0 of 6

Cc1ccc(/C=N\NC(=O)NN)cc1
survivor count [1]: 3 of 6
survivor count [2]: 0 of 6

CC(C)CC([NH-])C(=O)O.[C-]#[O+].[C-]#[O+].[Rh] (stereo not drawn)
survivor count [10]: 2 of 6
survivor count [11]: 0 of 6
survivor count [12]: 0 of 6

COc1cccc2cc3c(NCCCN(C)C)nnc(NCCCN(C)C)c3cc12
survivor count (dose: 30.0 mg/kg/injection, schedule: Q01DX005 (ip), vehicle: saline): 0 of 6
survivor count [15]: 0 of 6
survivor count [16]: 0 of 6
survivor count [17]: 0 of 6

CCOC(=O)C(=O)N(CCCNc1c2ccccc2nc2c(OC)cccc12)CCCNc1c2ccccc2nc2c(OC)cccc12
T/C (dose: 5.0 mg/kg/injection, schedule: Q01DX009 (ip), vehicle: water): 139 % of control
survivor count (dose: 20.0 mg/kg/injection, schedule: Q01DX009 (ip), vehicle: water): 4 of 6

C/C=C/C(C#N)O[Si](C)(C)C (stereo not drawn)
survivor count [15]: 0 of 6
survivor count [16]: 0 of 6
survivor count [17]: 0 of 6

COc1ccc2c(c1)CCn1c(C)c(COC(=O)NC(C)C)c(COC(=O)NC(C)C)c1-2
T/C (dose: 3.13 mg/kg/injection, schedule: Q01DX009 (ip), vehicle: distilled water + Tween-80): 142 % of control
T/C (dose: 6.25 mg/kg/injection, schedule: Q01DX009 (ip), vehicle: distilled water + Tween-80): 136 % of control
survivor count (dose: 50.0 mg/kg/injection, schedule: Q01DX009 (ip), vehicle: distilled water + Tween-80): 0 of 6 and 6 of 6
survivor count (dose: 100.0 mg/kg/injection, schedule: Q01DX009 (ip), vehicle: distilled water + Tween-80): 3 of 6
survivor count (dose: 200.0 mg/kg/injection, schedule: Q01DX009 (ip), vehicle: distilled water + Tween-80): 0 of 6

CCC1=CCC2C(=O)C3CC(CC)=CCC3C(=O)C2C1 (stereo not drawn)
survivor count [1]: 5 of 5
survivor count [2]: 5 of 5

CC(C)(C)c1cc(I)c(O)c(CN)c1
T/C (dose: 50.0 mg/kg/injection, schedule: Q01DX009 (ip), vehicle: saline): 126 % of control
survivor count (dose: 100.0 mg/kg/injection, schedule: Q01DX009 (ip), vehicle: saline): 6 of 6

CC(=O)OC1(OC(C)=O)C=C2OCOC2=CC1=O
survivor count (dose: 35.0 mg/kg/injection, schedule: Q01DX005 (ip), vehicle: Klucel (hydroxypropylcellulose) (HPC)): 0 of 6

N#CC1CCCC(C#N)N1Cc1ccccc1 (stereo not drawn)
survivor count [14]: 0 of 6

CC1(C)c2ccccc2N2C(c3ccccc3)=NN(c3ccccc3)C21C (stereo not drawn)
survivor count (dose: 240.0 mg/kg/injection, schedule: Q01DX005 (ip), vehicle: saline with Tween-80): 6 of 6
